In PubChem BioAssay AID254 (DTP/NCI, 2004):
The list is a part of this screen's results and no random one: its compounds were picked by chemical class. Other doses and runs of a compound may be missing. T/C gives the treated animals as a percentage of the vehicle group. For survival time, the PubChem record calls one and a half times the control and up active, and a quarter to a half above the control has no call in these data; cut-offs in other NCI protocols can differ. Some entries show no survivor count and are marked so; the dose need not have been tolerated. Schedules are NCI's codes, taken here to give the interval after Q, in days (D) or hours (H), and the number of doses after X. Some schedule codes hold Z or #, which are not explained here.

Tested on: L1210 leukemia iv in BDF1 mice, survival T/C
Assay: NCI In Vivo Anticancer Drug Screen. Data for tumor model L1210 Leukemia (intravenous) in B6D2F1 (BDF1) mice
Conditions: T/C endpoint: mean survival time, vehicle: saline, higher T/C = longer survival
Experimental: The antitumor activity of compounds was measured in mice bearing transplantable tumors. Survival or tumor size were measured and the results are expressed as the measurement made in the treated group (T) divided by the measurement made in the vehicle treated control group (C). The tumor model used in this assay is L1210 Leukemia (intravenous) in B6D2F1 (BDF1) mice

For `NC1CCCCC1.NP(=O)(O)N(CCCl)CCCl`, the T/C (dose: 13.0 mg/kg/injection, schedule: Q## X007 (ip)) was 154 % of control [survivor count not shown], the T/C (dose: 20.0 mg/kg/injection, schedule: Q## X007 (ip)) was 194 % of control [survivor count not shown] and the T/C (dose: 30.0 mg/kg/injection, schedule: Q## X007 (ip)) was 244 % of control [survivor count not shown]. For the same molecule, the T/C (dose: 35.0 mg/kg/injection, schedule: Q## X007 (ip)) was 238 % of control [survivor count not shown], the T/C (dose: 40.0 mg/kg/injection, schedule: Q## X007 (ip)) was 184 % of control [survivor count not shown] and the T/C (dose: 92.0 mg/kg/injection, schedule: Q01DX001 (ip)) was 172 % of control [survivor count not shown]. The T/C (dose: 140.0 mg/kg/injection, schedule: Q01DX001 (ip)) was 208 % of control [survivor count not shown], the T/C (dose: 210.0 mg/kg/injection, schedule: Q01DX001 (ip)) was 192 % of control [survivor count not shown] and the T/C (dose: 245.0 mg/kg/injection, schedule: Q01DX001 (ip)) was 156 % of control [survivor count not shown]. For the same molecule, the T/C (dose: 280.0 mg/kg/injection, schedule: Q01DX001 (ip)) was 132 % of control [survivor count not shown].
